Data taken from PMC6358605.
No constants are given. Whether binding was seen depends on the method and setting. Where a sequence is shown, tags or fusion partners need not be part of it.

Amino acid sequences for entries named in this document (tags omitted). Residues count along the entry.
UniProt G3I8R9, residues 28-413: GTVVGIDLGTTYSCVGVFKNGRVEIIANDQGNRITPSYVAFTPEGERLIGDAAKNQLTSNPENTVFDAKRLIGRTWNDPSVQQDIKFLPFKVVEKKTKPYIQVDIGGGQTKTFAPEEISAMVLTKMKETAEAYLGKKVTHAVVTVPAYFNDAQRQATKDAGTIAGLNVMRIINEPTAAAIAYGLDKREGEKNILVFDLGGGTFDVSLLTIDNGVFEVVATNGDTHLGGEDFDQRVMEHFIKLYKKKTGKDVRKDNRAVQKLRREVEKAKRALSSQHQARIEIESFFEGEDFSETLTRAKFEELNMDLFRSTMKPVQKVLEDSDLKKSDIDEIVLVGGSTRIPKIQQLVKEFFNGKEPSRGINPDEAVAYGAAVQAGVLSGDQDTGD

Target: T1, biotinylated AviTag-SAPLIP^22–123 (mouse) (UniProt Q9CXI5)
T1 sequence (chain, biotin (on the AviTag, by E. coli BirA)): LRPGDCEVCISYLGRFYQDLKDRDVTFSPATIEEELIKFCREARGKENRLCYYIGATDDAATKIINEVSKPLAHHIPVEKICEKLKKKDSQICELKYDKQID
Test: BLI; sequential dipping: streptavidin biosensors loaded with biotinylated MANF, SAP or SAPLIP, dipped in BiP SBD, buffer, BiP NBD with 2 mM ATP, 2 mM ATP, BiP NBD with 2 mM ADP, 2 mM ADP; HKMT buffer; both purified

Substance: BiP NBD (28–413) (from UniProt G3I8R9 28-413) (domain or fragment)
- binding: no binding
